Data published in patent publication US10450346B2, “Immunotherapy against several tumors of the blood, in particular chronic lymphoid leukemia (CLL)” (Immatics biotechnologies GmbH, priority 2014, dated 2019).

B1: AT rich interactive domain 5B (MRF1-like) (protein, UniProt Q14865 1-1188, looked up)
AT-rich interactive …: MEPNSLQWVGSPCGLHGPYIFYKAFQFHLEGKPRILSLGDFFFVRCTPKDPICIAELQLLWEERTSRQLLSSSKLYFLPEDTPQGRNSDHGEDEVIAVSEKVIVKLEDLVKWVHSDFSKWRCGFHAGPVKTEALGRNGQKEALLKYRQSTLNSGLNFKDVLKEKADLGEDEEETNVIVLSYPQYCRYRSMLKRIQDKPSSILTDQFALALGGIAVVSRNPQILYCRDTFDHPTLIENESICDEFAPNLKGRPRKKKPCPQRRDSFSGVKDSNNNSDGKAVAKVKCEARSALTKPKNNHNCKKVSNEEKPKVAIGEECRADEQAFLVALYKYMKERKTPIERIPYLGFKQINLWTMFQAAQKLGGYETITARRQWKHIYDELGGNPGSTSAATCTRRHYERLILPYERFIKGEEDKPLPPIKPRKQENSSQENENKTKVSGTKRIKHEIPKSKKEKENAPKPQDAAEVSSEQEKEQETLISQKSIPEPLPAADMKKKIEGYQEFSAKPLASRVDPEKDNETDQGSNSEKVAEEAGEKGPTPPLPSAPLAPEKDSALVPGASKQPLTSPSALVDSKQESKLCCFTESPESEPQEASFPSFPTTQPPLANQNETEDDKLPAMADYIANCTVKVDQLGSDDIHNALKQTPKVLVVQSFDMFKDKDLTGPMNENHGLNYTPLLYSRGNPGIMSPLAKKKLLSQVSGASLSSSYPYGSPPPLISKKKLIARDDLCSSLSQTHHGQSTDHMAVSRPSVIQHVQSFRSKPSEERKTINDIFKHEKLSRSDPHRCSFSKHHLNPLADSYVLKQEIQEGKDKLLEKRALPHSHMPSFLADFYSSPHLHSLYRHTEHHLHNEQTSKYPSRDMYRESENSSFPSHRHQEKLHVNYLTSLHLQDKKSAAAEAPTDDQPTDLSLPKNPHKPTGKVLGLAHSTTGPQESKGISQFQVLGSQSRDCHPKACRVSPMTMSGPKKYPESLSRSGKPHHVRLENFRKMEGMVHPILHRKMSPQNIGAARPIKRSLEDLDLVIAGKKARAVSPLDPSKEVSGKEKASEQESEGSKAAHGGHSGGGSEGHKLPLSSPIFPGLYSGSLCNSGLNSRLPAGYSHSLQYLKNQTVLSPLMQPLAFHSLVMQRGIFTSPTNSQQLYRHLAAATPVGSSYGDLLHNSIYPLAAINPQAAFPSSQLSSVHPSTKL
notes: LiTAA source protein
B2: poly (ADP-ribose) polymerase family, member 3 (protein, UniProt Q9Y6F1 1-533, looked up)
Protein …: MAPKPKPWVQTEGPEKKKGRQAGREEDPFRSTAEALKAIPAEKRIIRVDPTCPLSSNPGTQVYEDYNCTLNQTNIENNNNKFYIIQLLQDSNRFFTCWNRWGRVGEVGQSKINHFTRLEDAKKDFEKKFREKTKNNWAERDHFVSHPGKYTLIEVQAEDEAQEAVVKVDRGPVRTVTKRVQPCSLDPATQKLITNIFSKEMFKNTMALMDLDVKKMPLGKLSKQQIARGFEALEALEEALKGPTDGGQSLEELSSHFYTVIPHNFGHSQPPPINSPELLQAKKDMLLVLADIELAQALQAVSEQEKTVEEVPHPLDRDYQLLKCQLQLLDSGAPEYKVIQTYLEQTGSNHRCPTLQHIWKVNQEGEEDRFQAHSKLGNRKLLWHGTNMAVVAAILTSGLRIMPHSGGRVGKGIYFASENSKSAGYVIGMKCGAHHVGYMFLGEVALGREHHINTDNPSLKSPPPGFDSVIARGHTEPDPTQDTELELDGQQVVVPQGQPVPCPEFSSSTFSQSEYLIYQESQCRLRYLLEVHL
B3: zinc finger, AN1-type domain 5 (protein, UniProt O76080 1-213, looked up)
AN1-type zinc finger protein 5: MAQETNQTPGPMLCSTGCGFYGNPRTNGMCSVCYKEHLQRQQNSGRMSPMGTASGSNSPTSDSASVQRADTSLNNCEGAAGSTSEKSRNVPVAALPVTQQMTEMSISREDKITTPKTEVSEPVVTQPSPSVSQPSTSQSEEKAPELPKPKKNRCFMCRKKVGLTGFDCRCGNLFCGLHRYSDKHNCPYDYKAEAAAKIRKENPVVVAEKIQRI
notes: LiTAA source protein
B4: interferon regulatory factor 9 (protein, UniProt Q00978 1-393, looked up)
Interferon regulatory factor 9: MASGRARCTRKLRNWVVEQVESGQFPGVCWDDTAKTMFRIPWKHAGKQDFREDQDAAFFKAWAIFKGKYKEGDTGGPAVWKTRLRCALNKSSEFKEVPERGRMDVAEPYKVYQLLPPGIVSGQPGTQKVPSKRQHSSVSSERKEEEDAMQNCTLSPSVLQDSLNNEEEGASGGAVHSDIGSSSSSSSPEPQEVTDTTEAPFQGDQRSLEFLLPPEPDYSLLLTFIYNGRVVGEAQVQSLDCRLVAEPSGSESSMEQVLFPKPGPLEPTQRLLSQLERGILVASNPRGLFVQRLCPIPISWNAPQAPPGPGPHLLPSNECVELFRTAYFCRDLVRYFQGLGPPPKFQVTLNFWEESHGSSHTPQNLITVKMEQAFARYLLEQTPEQQAAILSLV
notes: LiTAA source protein
B5: lysine (K)-specific demethylase 2B (protein, UniProt Q8NHM5 1-1336, looked up)
Lysine-specific demethylase 2B: MAGPQMGGSAEDHPPRKRHAAEKQKKKTVIYTKCFEFESATQRPIDRQRYDENEDLSDVEEIVSVRGFSLEEKLRSQLYQGDFVHAMEGKDFNYEYVQREALRVPLIFREKDGLGIKMPDPDFTVRDVKLLVGSRRLVDVMDVNTQKGTEMSMSQFVRYYETPEAQRDKLYNVISLEFSHTKLEHLVKRPTVVDLVDWVDNMWPQHLKEKQTEATNAIAEMKYPKVKKYCLMSVKGCFTDFHIDFGGTSVWYHVFRGGKIFWLIPPTLHNLALYEEWVLSGKQSDIFLGDRVERCQRIELKQGYTFFIPSGWIHAVYTPVDSLVFGGNILHSFNVPMQLRIYEIEDRTRVQPKFRYPFYYEMCWYVLERYVYCVTQRSHLTQEYQRESMLIDAPRKPSIDGFSSDSWLEMEEEACDQQPQEEEEKDEEGEGRDRAPKPPTDGSTSPTSTPSEDQEALGKKPKAPALRFLKRTLSNESEESVKSTTLAVDYPKTPTGSPATEVSAKWTHLTEFELKGLKALVEKLESLPENKKCVPEGIEDPQALLEGVKNVLKEHADDDPSLAITGVPVVTWPKKTPKNRAVGRPKGKLGPASAVKLAANRTTAGARRRRTRCRKCEACLRTECGECHFCKDMKKFGGPGRMKQSCIMRQCIAPVLPHTAVCLVCGEAGKEDTVEEEEGKFNLMLMECSICNEIIHPGCLKIKESEGVVNDELPNCWECPKCNHAGKTGKQKRGPGFKYASNLPGSLLKEQKMNRDNKEGQEPAKRRSECEEAPRRRSDEHSKKVPPDGLLRRKSDDVHLRKKRKYEKPQELSGRKRASSLQTSPGSSSHLSPRPPLGSSLSPWWRSSLTYFQQQLKPGKEDKLFRKKRRSWKNAEDRMALANKPLRRFKQEPEDELPEAPPKTRESDHSRSSSPTAGPSTEGAEGPEEKKKVKMRRKRRLPNKELSRELSKELNHEIQRTENSLANENQQPIKSEPESEGEEPKRPPGICERPHRFSKGLNGTPRELRHQLGPSLRSPPRVISRPPPSVSPPKCIQMERHVIRPPPISPPPDSLPLDDGAAHVMHREVWMAVFSYLSHQDLCVCMRVCRTWNRWCCDKRLWTRIDLNHCKSITPLMLSGIIRRQPVSLDLSWTNISKKQLSWLINRLPGLRDLVLSGCSWIAVSALCSSSCPLLRTLDVQWVEGLKDAQMRDLLSPPTDNRPGQMDNRSKLRNIVELRLAGLDITDASLRLIIRHMPLLSKLHLSYCNHVTDQSINLLTAVGTTTRDSLTEINLSDCNKVTDQCLSFFKRCGNICHIDLRYCKQVTKEGCEQFIAEMSVSVQFGQVEEKLLQKLS
notes: LiTAA source protein
B6: TBC1 domain family, member 22A (protein, UniProt Q8WUA7 2-517, looked up)
TBC1 domain family member 22A: ASDGARKQFWKRSNSKLPGSIQHVYGAQHPPFDPLLHGTLLRSTAKMPTTPVKAKRVSTFQEFESNTSDAWDAGEDDDELLAMAAESLNSEVVMETANRVLRNHSQRQGRPTLQEGPGLQQKPRPEAEPPSPPSGDLRLVKSVSESHTSCPAESASDAAPLQRSQSLPHSATVTLGGTSDPSTLSSSALSEREASRLDKFKQLLAGPNTDLEELRRLSWSGIPKPVRPMTWKLLSGYLPANVDRRPATLQRKQKEYFAFIEHYYDSRNDEVHQDTYRQIHIDIPRMSPEALILQPKVTEIFERILFIWAIRHPASGYVQGINDLVTPFFVVFICEYIEAEEVDTVDVSGVPAEVLCNIEADTYWCMSKLLDGIQDNYTFAQPGIQMKVKMLEELVSRIDEQVHRHLDQHEVRYLQFAFRWMNNLLMREVPLRCTIRLWDTYQSEPDGFSHFHLYVCAAFLVRWRKEILEEKDFQELLLFLQNLPTAHWDDEDISLLLAEAYRLKFAFADAPNHYKK
notes: LiTAA source protein
B7: tumor protein p53 inducible protein 11 (protein, UniProt O14683 1-189, looked up)
Tumor protein p53-inducible …: MAAKQPPPLMKKHSQTDLVSRLKTRKILGVGGEDDDGEVHRSKISQVLGNEIKFTIREPLGLRVWQFVSAVLFSGIAIMALAFPDQLYDAVFDGAQVTSKTPIRLYGGALLSISLIMWNALYTAEKVIIRWTLLTEACYFGVQFLVVTATLAETGLMSLGILLLLVSRLLFVVISIYYYYQVGRRPKKA
notes: LiTAA source protein
B8: zinc finger protein 296 (protein, UniProt Q8WUU4 1-475, looked up)
Zinc finger protein 296: MSRRKAGSAPRRVEPAPAANPDDEMEMQDLVIELKPEPDAQPQQAPRLGPFSPKEVSSAGRFGGEPHHSPGPMPAGAALLALGPRNPWTLWTPLTPNYPDRQPWTDKHPDLLTCGRCLQTFPLEAITAFMDHKKLGCQLFRGPSRGQGSEREELKALSCLRCGKQFTVAWKLLRHAQWDHGLSIYQTESEAPEAPLLGLAEVAAAVSAVVGPAAEAKSPRASGSGLTRRSPTCPVCKKTLSSFSNLKVHMRSHTGERPYACDQCPYACAQSSKLNRHKKTHRQVPPQSPLMADTSQEQASAAPPEPAVHAAAPTSTLPCSGGEGAGAAATAGVQEPGAPGSGAQAGPGGDTWGAITTEQRTDPANSQKASPKKMPKSGGKSRGPGGSCEFCGKHFTNSSNLTVHRRSHTGERPYTCEFCNYACAQSSKLNRHRRMHGMTPGSTRFECPHCHVPFGLRATLDKHLRQKHPEAAGEA
notes: LiTAA source protein

Tested on: primary CLL samples (PBMC from CLL patients), HLA class I ligands
Test: HLA class I ligandome analysis by LC-MS/MS (frequency of HLA restricted presentation)
Set-up: species or system human
Conditions: CLL patient HLA class I ligandomes (n = 30)

**Q.** Which “Number of positive CLLs” value does the source give for B1 here?
**A.** Its value is 7.

**Q.** B2 was tested. Which “Number of positive CLLs” value did it give?
**A.** The value was 10.

**Q.** B3 was tested. Which “Number of positive CLLs” value did it give?
**A.** Its value is 7.

**Q.** B4 was tested. Which “Number of positive CLLs” value did it give?
**A.** The value was 8.

**Q.** With B5 as the molecule, how does the “Number of positive CLLs” value read?
**A.** The value was 8.

**Q.** How did the “Number of positive CLLs” value turn out when B6 was run?
**A.** The value was 8.

**Q.** How did the “Number of positive CLLs” value turn out when B7 was run?
**A.** The value was 8.

**Q.** For B8, which “Number of positive CLLs” value is on record?
**A.** The value was 8.

Same assay, conditions: source protein (LiTAA) representation in CLL patient HLA class I ligandomes (n = 30)

**Q.** For B1, which “Number of positive CLLs (frequency [%])” value is on record?
**A.** Its value is 23.3%.

**Q.** Which “Number of positive CLLs (frequency [%])” value does the source give for B2 here?
**A.** Its value is 33.3%.

**Q.** Which “Number of positive CLLs (frequency [%])” value does the source give for B3 here?
**A.** Its value is 23.3%.

**Q.** With B4 as the molecule, how does the “Number of positive CLLs (frequency [%])” value read?
**A.** The value was 26.7%.

**Q.** With B5 as the molecule, how does the “Number of positive CLLs (frequency [%])” value read?
**A.** Its value is 26.7%.

**Q.** B6 was tested. Which “Number of positive CLLs (frequency [%])” value did it give?
**A.** Its value is 26.7%.

**Q.** How did the “Number of positive CLLs (frequency [%])” value turn out when B7 was run?
**A.** The value was 26.7%.

**Q.** B8 was tested. Which “Number of positive CLLs (frequency [%])” value did it give?
**A.** Its value is 26.7%.
